# The supplement of paper PMC8728848
# This is one part of the list.
# B1: PX14343E-bfa-545-24-545 (Bacteroides fragilis) (protein)
# chain: LDRYPQEELSDGSFWKTPDDANKVVSDLYGYLSTWDQDNDINSDNATMGIKWAAGNVSKGIYDPADQGWSGDYANVRQCNLILSKIDEIPDYPEADKTKALGQVYFFRAYIYFNLIRSFGDVPYIDKPLDLKDMEGITRMPRAEVYEKIMADFDKAIAALPTEWGASDYGRVTKGAAMAMKARAALYYGNWDTAATEAKNVMDLGLYELYDKDNTGKYAELFWEKADGCDEFILVTQFNYPDKTHYLMGWECFPTKGWGGMNPTQSLVDAFEDSEGAPISKSKIYDPTDPFKNRDPRLEVDILHDGEEMYGVTIKVAPLASSGSTGINQHNDATETGYYGQKWLDPSLDPLSDGWNMGKDWVHIRYAEVLLTYAEAKNELQGLDPEAFDAVNQVRRRVGMPELQNTDPSKPTYCATQDDLRQRIRNEWRVEFCLEGGKRMWDIRRWGIAKDVLNAPFEGLKYKIVDNPNDPDKKVDGGKMCILYQGDPIILSGSRYSDNNYLFPVPQSEIDLNPALTQNPGY
# Assays:
# Assay in all cases: glycan array binding signal (z-score within array); higher = stronger binding
# Conditions in all cases: glycan notation: IUPAC condensed, linker removed
# [1] = target: Gal(a1-3)[Gal(a1-4)]Gal(b1-4)GlcNAc
# Summary of the method: (§1)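 The binding signal is a Z-score computed within each array and averaged over linkers. Arrays of the same protein sequence at different concentrations or buffers were also averaged together. Data originate from 3228 arrays in the Consortium for Functional Glycomics database, kept only where the protein sequence was available.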
# [2] = target: Gal(a1-4)Gal(b1-3)GlcNAc(b1-2)Man(a1-3)[Gal(a1-4)Gal(b1-3)GlcNAc(b1-2)Man(a1-6)]Man(b1-4)GlcNAc(b1-4)GlcNAc
# Summary of the method: as §1
# Gal(a1-4)Gal(b1-4)Glc = target: Gal(a1-4)Gal(b1-4)Glc
# Summary of the method: as §1
# Gal(a1-4)Gal(b1-4)GlcNAc = target: Gal(a1-4)Gal(b1-4)GlcNAc
# Summary of the method: as §1
# [3] = target: Gal(a1-4)Gal(b1-4)GlcNAc(b1-2)Man(a1-3)[Gal(a1-4)Gal(b1-4)GlcNAc(b1-2)Man(a1-6)]Man(b1-4)GlcNAc(b1-4)GlcNAc
# Summary of the method: as §1
# [4] = target: Gal(a1-4)Gal(b1-4)GlcNAc(b1-3)Gal(b1-4)Glc
# Summary of the method: as §1
# Gal(a1-4)GlcNAc = target: Gal(a1-4)GlcNAc
# Summary of the method: as §1
# Gal(a1-6)Glc = target: Gal(a1-6)Glc
# Summary of the method: as §1
# Gal(b1-2)Gal = target: Gal(b1-2)Gal
# Summary of the method: as §1
# Gal(b1-3)Gal = target: Gal(b1-3)Gal
# Summary of the method: as §1
# Gal(b1-3)Gal(b1-4)GlcNAc = target: Gal(b1-3)Gal(b1-4)GlcNAc
# Summary of the method: as §1
# Gal(b1-3)GalNAc = target: Gal(b1-3)GalNAc
# Summary of the method: as §1
# [5] = target: Gal(b1-3)GalNAc(a1-3)[Fuc(a1-2)]Gal(b1-4)Glc
# Summary of the method: as §1
# [6] = target: Gal(b1-3)GalNAc(a1-3)[Fuc(a1-2)]Gal(b1-4)GlcNAc
# Summary of the method: as §1
# Gal(b1-3)GalNAc(b1-3)Gal = target: Gal(b1-3)GalNAc(b1-3)Gal
# Summary of the method: as §1
# [7] = target: Gal(b1-3)GalNAc(b1-3)Gal(a1-4)Gal(b1-4)Glc
# Summary of the method: as §1
# [8] = target: Gal(b1-3)GalNAc(b1-4)Gal(b1-4)Glc
# Summary of the method: as §1
# [9] = target: Gal(b1-3)GalNAc(b1-4)[Neu5Ac(a2-3)]Gal(b1-4)Glc
# Summary of the method: as §1
# Gal(b1-3)GlcNAc = target: Gal(b1-3)GlcNAc
# Summary of the method: as §1
# [10] = target: Gal(b1-3)GlcNAc(a1-3)Gal(b1-4)GlcNAc
# Summary of the method: as §1
# [11] = target: Gal(b1-3)GlcNAc(a1-6)Gal(b1-4)GlcNAc
# Summary of the method: as §1
# Gal(b1-3)GlcNAc(b1-2)Man = target: Gal(b1-3)GlcNAc(b1-2)Man
# Summary of the method: as §1
# [12] = target: Gal(b1-3)GlcNAc(b1-2)Man(a1-3)[Gal(b1-3)GlcNAc(b1-2)Man(a1-6)]Man(b1-4)GlcNAc(b1-4)GlcNAc
# Summary of the method: as §1
# [13] = target: Gal(b1-3)GlcNAc(b1-2)Man(a1-3)[Gal(b1-3)GlcNAc(b1-2)Man(a1-6)]Man(b1-4)GlcNAc(b1-4)[Fuc(a1-6)]GlcNAc
# Summary of the method: as §1
# [14] = target: Gal(b1-3)GlcNAc(b1-2)Man(a1-3)[GlcNAc(b1-4)][Gal(b1-3)GlcNAc(b1-2)Man(a1-6)]Man(b1-4)GlcNAc(b1-4)GlcNAc
# Summary of the method: as §1
# [15] = target: Gal(b1-3)GlcNAc(b1-2)[Gal(b1-3)GlcNAc(b1-6)]Man(a1-6)[Gal(b1-3)GlcNAc(b1-2)Man(a1-3)]Man(b1-4)GlcNAc(b1-4)GlcNAc
# Summary of the method: as §1
# [16] = target: Gal(b1-3)GlcNAc(b1-3)Gal(b1-3)GlcNAc
# Summary of the method: as §1
# [17] = target: Gal(b1-3)GlcNAc(b1-3)Gal(b1-4)Glc
# Summary of the method: as §1
# [18] = target: Gal(b1-3)GlcNAc(b1-3)Gal(b1-4)GlcNAc
# Summary of the method: as §1
# [19] = target: Gal(b1-3)GlcNAc(b1-3)Gal(b1-4)GlcNAc(b1-2)Man(a1-3)[Gal(b1-3)GlcNAc(b1-3)Gal(b1-4)GlcNAc(b1-2)Man(a1-6)]Man(b1-4)GlcNAc(b1-4)GlcNAc
# Summary of the method: as §1
# [20] = target: Gal(b1-3)GlcNAc(b1-3)Gal(b1-4)GlcNAc(b1-2)[Gal(b1-3)GlcNAc(b1-3)Gal(b1-4)GlcNAc(b1-6)]Man(a1-6)[Gal(b1-3)GlcNAc(b1-3)Gal(b1-4)GlcNAc(b1-2)Man(a1-3)]Man(b1-4)GlcNAc(b1-4)[Fuc(a1-6)]GlcNAc
# Summary of the method: as §1
# [21] = target: Gal(b1-3)GlcNAc(b1-3)Gal(b1-4)GlcNAc(b1-3)Gal(b1-4)GlcNAc(b1-2)[Gal(b1-3)GlcNAc(b1-3)Gal(b1-4)GlcNAc(b1-3)Gal(b1-4)GlcNAc(b1-6)]Man(a1-6)[Gal(b1-3)GlcNAc(b1-3)Gal(b1-4)GlcNAc(b1-3)Gal(b1-4)GlcNAc(b1-2)Man(a1-3)]Man(b1-4)GlcNAc(b1-4)[Fuc(a1-6)]GlcNAc
# Summary of the method: as §1
# [22] = target: Gal(b1-3)GlcNAc(b1-3)Gal(b1-4)GlcNAc(b1-6)[Gal(b1-3)GlcNAc(b1-3)]Gal(b1-4)Glc
# Summary of the method: as §1
# [23] = target: Gal(b1-3)GlcNAc(b1-3)Gal(b1-4)[Fuc(a1-3)]GlcNAc
# Summary of the method: as §1
# [24] = target: Gal(b1-3)GlcNAc(b1-3)Gal(b1-4)[Fuc(a1-3)]GlcNAc(b1-6)[Gal(b1-3)GlcNAc(b1-3)]Gal(b1-4)Glc
# Summary of the method: as §1
# [25] = target: Gal(b1-3)GlcNAc(b1-3)GalNAc
# Summary of the method: as §1
# [26] = target: Gal(b1-3)GlcNAc(b1-6)Gal(b1-4)GlcNAc
# Summary of the method: as §1
# [27] = target: Gal(b1-3)GlcNAc(b1-6)GalNAc
# Summary of the method: as §1
binder,measurement,setting,value
B1,glycan array binding signal (z-score),[1],-0.842
same,glycan array binding signal (z-score),[2],2.18
same,glycan array binding signal (z-score),Gal(a1-4)Gal(b1-4)Glc,0.889
same,glycan array binding signal (z-score),Gal(a1-4)Gal(b1-4)GlcNAc,-0.178
same,glycan array binding signal (z-score),[3],-0.239
same,glycan array binding signal (z-score),[4],-0.116
same,glycan array binding signal (z-score),Gal(a1-4)GlcNAc,-1.08
same,glycan array binding signal (z-score),Gal(a1-6)Glc,-0.033
same,glycan array binding signal (z-score),Gal(b1-2)Gal,0.303
same,glycan array binding signal (z-score),Gal(b1-3)Gal,-0.397
same,glycan array binding signal (z-score),Gal(b1-3)Gal(b1-4)GlcNAc,-0.519
same,glycan array binding signal (z-score),Gal(b1-3)GalNAc,-0.501
same,glycan array binding signal (z-score),[5],0.05
same,glycan array binding signal (z-score),[6],-0.472
same,glycan array binding signal (z-score),Gal(b1-3)GalNAc(b1-3)Gal,-0.357
same,glycan array binding signal (z-score),[7],-0.76
same,glycan array binding signal (z-score),[8],-0.816
same,glycan array binding signal (z-score),[9],-0.286
same,glycan array binding signal (z-score),Gal(b1-3)GlcNAc,-0.11
same,glycan array binding signal (z-score),[10],-0.464
same,glycan array binding signal (z-score),[11],-0.683
same,glycan array binding signal (z-score),Gal(b1-3)GlcNAc(b1-2)Man,0.04
same,glycan array binding signal (z-score),[12],0.652
same,glycan array binding signal (z-score),[13],1.15
same,glycan array binding signal (z-score),[14],0.264
same,glycan array binding signal (z-score),[15],1.16
same,glycan array binding signal (z-score),[16],-0.621
same,glycan array binding signal (z-score),[17],-0.272
same,glycan array binding signal (z-score),[18],-0.675
same,glycan array binding signal (z-score),[19],-0.298
same,glycan array binding signal (z-score),[20],0.173
same,glycan array binding signal (z-score),[21],1.06
same,glycan array binding signal (z-score),[22],0.375
same,glycan array binding signal (z-score),[23],-0.765
same,glycan array binding signal (z-score),[24],-0.321
same,glycan array binding signal (z-score),[25],-0.329
same,glycan array binding signal (z-score),[26],-0.703
same,glycan array binding signal (z-score),[27],-0.494

# Two records drawn at random from those above:
binder,measurement,setting,value
B1,glycan array binding signal (z-score),[11],-0.683
same,glycan array binding signal (z-score),Gal(b1-2)Gal,0.303
